This note sets out measurements from patent US5922688.

Sequences of proteins named here, by UniProt entry; tags and fusion partners are left off. A change or cut given only in a name is not applied to a line headed by its entry.
UniProt P08515, whole entry: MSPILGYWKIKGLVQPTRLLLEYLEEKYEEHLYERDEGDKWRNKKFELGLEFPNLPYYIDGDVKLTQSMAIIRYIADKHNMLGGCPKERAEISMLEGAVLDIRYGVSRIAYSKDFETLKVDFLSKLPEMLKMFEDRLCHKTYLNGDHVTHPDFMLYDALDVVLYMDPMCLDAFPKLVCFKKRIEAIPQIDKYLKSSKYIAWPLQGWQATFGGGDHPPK
UniProt P28322: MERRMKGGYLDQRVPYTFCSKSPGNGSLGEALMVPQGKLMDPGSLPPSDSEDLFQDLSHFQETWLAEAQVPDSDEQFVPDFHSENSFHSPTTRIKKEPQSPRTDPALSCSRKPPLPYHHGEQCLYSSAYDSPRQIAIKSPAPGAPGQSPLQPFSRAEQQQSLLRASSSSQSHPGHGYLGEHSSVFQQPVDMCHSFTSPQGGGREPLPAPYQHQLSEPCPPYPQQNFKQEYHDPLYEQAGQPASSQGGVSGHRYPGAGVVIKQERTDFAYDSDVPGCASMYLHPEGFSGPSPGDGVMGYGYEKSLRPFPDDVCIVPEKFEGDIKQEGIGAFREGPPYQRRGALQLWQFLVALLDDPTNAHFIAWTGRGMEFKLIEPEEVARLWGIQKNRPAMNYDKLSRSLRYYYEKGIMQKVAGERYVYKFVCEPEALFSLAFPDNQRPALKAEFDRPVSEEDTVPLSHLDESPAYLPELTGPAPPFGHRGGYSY

For one data set, the target named is GST (control) (UniProt P08515). Put plainly: EMSA. Particulars: 1 ug GST alone control; non-binding implied by stated specificity; purified recombinant protein; protein details: GST alone; label: 32P. In general terms: A gel shift assay detects complexes by their altered migration in electrophoresis.
Another data set has as its target T1, PEA3 (GST-PEA3 fusion) (UniProt P28322).
T1 sequence (limits assumed): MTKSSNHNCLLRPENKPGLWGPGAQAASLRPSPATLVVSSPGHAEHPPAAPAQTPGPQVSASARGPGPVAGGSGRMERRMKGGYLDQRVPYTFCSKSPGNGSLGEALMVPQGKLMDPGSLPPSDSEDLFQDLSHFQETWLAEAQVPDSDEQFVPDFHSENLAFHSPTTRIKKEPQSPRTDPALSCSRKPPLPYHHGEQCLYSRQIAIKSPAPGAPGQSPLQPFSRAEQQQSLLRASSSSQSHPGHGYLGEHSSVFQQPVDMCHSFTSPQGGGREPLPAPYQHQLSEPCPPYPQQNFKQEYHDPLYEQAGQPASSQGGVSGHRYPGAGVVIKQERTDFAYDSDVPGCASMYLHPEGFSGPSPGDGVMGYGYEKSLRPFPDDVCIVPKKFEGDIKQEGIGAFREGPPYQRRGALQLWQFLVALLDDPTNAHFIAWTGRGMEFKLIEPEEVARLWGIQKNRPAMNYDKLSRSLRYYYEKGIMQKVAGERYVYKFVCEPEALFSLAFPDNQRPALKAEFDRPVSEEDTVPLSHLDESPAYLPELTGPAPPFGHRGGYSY
In words: EMSA. Particulars: purified recombinant protein; protein details: GST fusion; label: 32P.

Construct, isoform or probe ends are uncertain for at least one entry. For some assays here: Negatives hold for the conditions tested. For some assays here: Protein sequences can lack the tags named with them.

“AGGAAG (double strand) [HER-2/neu promoter oligonucleotide with PEA3 site]”: the binding result with GST (control) was “no binding”; with PEA3 (GST-PEA3 fusion), “binds”.
